Results deposited as PubChem BioAssay AID1259308 (NCATS, 2017).
The deposit covers about 59,000 reagents; this is a random part of them. Of all reagents, about 1,510 (2.6%) are marked active. 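Calls use total luciferase alone and ignore viability, so some active siRNAs may act by altering cell number.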 Reagents against one gene are numbered here. Further read-outs or replicates are left out here. No sequences are given here.

Purpose: 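Genes whose loss raises luciferase production in HEK293 cells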 (primary screen)
System: human HEK293 embryonic kidney cells stably expressing firefly luciferase (HEK-CMV-Luc2-Hygro)
Reagents: single siRNA against human genes, 0.8 pmol siRNA per well
Duration: 72 h
Detection: 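Luciferase light (ONE-Glo) measured on one replicate plate set and viability (CellTiter-Glo) on the other, scaled to a negative control siRNA, with robust z-scores and luciferase per cell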
Direction: total luciferase, z-score: higher = more reporter protein produced
Hit rule: 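An siRNA counts as active if its total luciferase robust z-score exceeds 3; genes with two or more such siRNAs out of three were retested with fresh siRNAs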
Meaning of the calls: active = raised luciferase; inactive = no rise

What did the screen give for DLL3 #1?
total luciferase, z-score: -1; Outcome: inactive

With DLL3 #2, what does the deposit list?
total luciferase, z-score: -2.86; Outcome: inactive

What did the screen give for DLL3 #3?
total luciferase, z-score: 0.322; Outcome: inactive

How did the screen score RAB7B #1?
total luciferase, z-score: -0.294; Outcome: inactive

Which result is listed for RAB7B #2?
total luciferase, z-score: -0.611; Outcome: inactive

With RAB7B #3, how do the results read?
total luciferase, z-score: 0.987; Outcome: inactive

With FADS3 #1, how do the results read?
total luciferase, z-score: -1.75; Outcome: inactive

For FADS3 #2, what does the deposit list?
total luciferase, z-score: -0.343; Outcome: inactive

For FADS3 #3, what does the deposit list?
total luciferase, z-score: 1.1; Outcome: inactive

With OIP5-AS1 #1, what does the deposit list?
total luciferase, z-score: 0.919; Outcome: inactive

For OIP5-AS1 #2, what does the deposit list?
total luciferase, z-score: 2.76; Outcome: inactive

How did the screen score OIP5-AS1 #3?
total luciferase, z-score: -0.0696; Outcome: inactive

How did the screen score LOC728684 (retired record) #1?
total luciferase, z-score: -1.53; Outcome: inactive

With LOC728684 (retired record) #2, what does the deposit list?
total luciferase, z-score: -0.563; Outcome: inactive

For LOC728684 (retired record) #3, how do the results read?
total luciferase, z-score: -2.96; Outcome: inactive

4 entries already listed, arranged by “total luciferase, z-score”, descending:
DLL3 #3: total luciferase, z-score = 0.322; Outcome = inactive
RAB7B #1: total luciferase, z-score = -0.294; Outcome = inactive
RAB7B #2: total luciferase, z-score = -0.611; Outcome = inactive
DLL3 #2: total luciferase, z-score = -2.86; Outcome = inactive

Continued.
With WBP1L #1, what does the deposit list?
total luciferase, z-score: 0.0544; Outcome: inactive

What is on record for WBP1L #2?
total luciferase, z-score: 0.488; Outcome: inactive

What did the screen give for WBP1L #3?
total luciferase, z-score: 0.542; Outcome: inactive

For ADAMTSL4 #1, what does the deposit list?
total luciferase, z-score: 1.18; Outcome: inactive

How did the screen score ADAMTSL4 #2?
total luciferase, z-score: 0.986; Outcome: inactive

With ADAMTSL4 #3, what does the deposit list?
total luciferase, z-score: -0.918; Outcome: inactive

With TMEM9 #1, how do the results read?
total luciferase, z-score: -1.55; Outcome: inactive

What is on record for TMEM9 #2?
total luciferase, z-score: -0.532; Outcome: inactive

How did the screen score TMEM9 #3?
total luciferase, z-score: -0.883; Outcome: inactive

Which result is listed for ZWINT #1?
total luciferase, z-score: 3.51; Outcome: active

What did the screen give for ZWINT #2?
total luciferase, z-score: -0.258; Outcome: inactive

What is on record for ZWINT #3?
total luciferase, z-score: 0.915; Outcome: inactive

With NAIP #1, what was measured?
total luciferase, z-score: -0.507; Outcome: inactive

For NAIP #2, what does the deposit list?
total luciferase, z-score: 1.35; Outcome: inactive

Which result is listed for NAIP #3?
total luciferase, z-score: 0.692; Outcome: inactive

For NAIP #4, how do the results read?
total luciferase, z-score: 0.969; Outcome: inactive

How did the screen score NAIP #5?
total luciferase, z-score: 0.714; Outcome: inactive

Which result is listed for NAIP #6?
total luciferase, z-score: -1.62; Outcome: inactive

Which result is listed for C1orf226 #1?
total luciferase, z-score: -0.566; Outcome: inactive

What is on record for C1orf226 #2?
total luciferase, z-score: 0.403; Outcome: inactive

With C1orf226 #3, what was measured?
total luciferase, z-score: -1.35; Outcome: inactive

With MPEG1 #1, how do the results read?
total luciferase, z-score: 0.696; Outcome: inactive

Which result is listed for MPEG1 #2?
total luciferase, z-score: -0.783; Outcome: inactive

Which result is listed for MPEG1 #3?
total luciferase, z-score: 0.517; Outcome: inactive

What is on record for PP2D1 #1?
total luciferase, z-score: -0.531; Outcome: inactive

With PP2D1 #2, how do the results read?
total luciferase, z-score: 0.922; Outcome: inactive

With PP2D1 #3, what does the deposit list?
total luciferase, z-score: 0.803; Outcome: inactive
